# Results reported in PMC7504130.
# Chains of the proteins cited; added tags and fusions are not shown. Lines headed by an entry give the natural chain unless they say otherwise; changes in a name come on top.
# UniProt P09874, whole entry: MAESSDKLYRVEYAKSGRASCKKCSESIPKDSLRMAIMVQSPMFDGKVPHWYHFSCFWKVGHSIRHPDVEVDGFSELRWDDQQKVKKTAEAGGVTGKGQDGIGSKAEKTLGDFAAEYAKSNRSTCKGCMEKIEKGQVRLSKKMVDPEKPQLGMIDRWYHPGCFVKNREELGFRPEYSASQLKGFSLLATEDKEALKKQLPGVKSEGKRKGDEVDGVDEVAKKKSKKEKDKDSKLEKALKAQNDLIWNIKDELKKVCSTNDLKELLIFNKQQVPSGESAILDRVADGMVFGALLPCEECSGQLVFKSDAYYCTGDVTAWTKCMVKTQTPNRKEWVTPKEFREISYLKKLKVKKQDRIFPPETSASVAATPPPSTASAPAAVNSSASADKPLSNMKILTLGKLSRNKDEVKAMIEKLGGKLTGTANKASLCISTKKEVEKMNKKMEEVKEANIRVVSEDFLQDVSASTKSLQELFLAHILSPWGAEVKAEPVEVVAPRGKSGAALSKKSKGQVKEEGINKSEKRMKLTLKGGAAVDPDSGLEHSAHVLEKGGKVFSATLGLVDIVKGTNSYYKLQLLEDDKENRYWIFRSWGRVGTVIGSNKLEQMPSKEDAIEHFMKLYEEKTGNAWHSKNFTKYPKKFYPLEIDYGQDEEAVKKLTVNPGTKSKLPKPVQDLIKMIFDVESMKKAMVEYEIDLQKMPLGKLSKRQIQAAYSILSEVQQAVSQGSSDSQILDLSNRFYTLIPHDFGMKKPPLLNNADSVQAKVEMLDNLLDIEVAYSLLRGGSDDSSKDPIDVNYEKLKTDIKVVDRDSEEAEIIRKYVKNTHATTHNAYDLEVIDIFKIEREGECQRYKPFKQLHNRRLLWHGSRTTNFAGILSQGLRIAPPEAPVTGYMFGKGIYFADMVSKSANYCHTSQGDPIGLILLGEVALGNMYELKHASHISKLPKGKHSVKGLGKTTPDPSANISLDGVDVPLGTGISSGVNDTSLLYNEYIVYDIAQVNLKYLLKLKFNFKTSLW
# UniProt P09651: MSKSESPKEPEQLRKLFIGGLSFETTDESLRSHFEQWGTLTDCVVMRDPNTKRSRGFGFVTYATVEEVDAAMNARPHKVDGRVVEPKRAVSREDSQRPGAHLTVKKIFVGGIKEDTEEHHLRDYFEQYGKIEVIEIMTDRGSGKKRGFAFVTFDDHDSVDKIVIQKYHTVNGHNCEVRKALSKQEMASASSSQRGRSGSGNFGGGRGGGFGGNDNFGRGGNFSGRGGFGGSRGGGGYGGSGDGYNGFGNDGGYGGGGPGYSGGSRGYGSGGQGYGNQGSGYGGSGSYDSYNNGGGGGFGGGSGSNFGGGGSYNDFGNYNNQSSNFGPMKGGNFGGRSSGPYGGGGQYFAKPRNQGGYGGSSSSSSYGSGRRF
# What was measured:
# [1] = target: PARP-1 (Panc-1 nuclear extract) (UniProt P09874); test: pull-down; conditions: pull-down: 20 mM Tris-HCl pH 7.4, 150 mM KCl, 8% glycerol, 1 mM DTT, 0.1 mM ZnAc, 2.5 ng/uL poly[dI-dC], RT, 80 nM DNA, protein in an extract
# [2] = target: T1, MAZ (Panc-1 nuclear extract) (UniProt P56270); test: pull-down; conditions: pull-down: 20 mM Tris-HCl pH 7.4, 150 mM KCl, 8% glycerol, 1 mM DTT, 0.1 mM ZnAc, 2.5 ng/uL poly[dI-dC], RT, 80 nM DNA, protein in an extract
# T1 sequence (looked up, limits assumed): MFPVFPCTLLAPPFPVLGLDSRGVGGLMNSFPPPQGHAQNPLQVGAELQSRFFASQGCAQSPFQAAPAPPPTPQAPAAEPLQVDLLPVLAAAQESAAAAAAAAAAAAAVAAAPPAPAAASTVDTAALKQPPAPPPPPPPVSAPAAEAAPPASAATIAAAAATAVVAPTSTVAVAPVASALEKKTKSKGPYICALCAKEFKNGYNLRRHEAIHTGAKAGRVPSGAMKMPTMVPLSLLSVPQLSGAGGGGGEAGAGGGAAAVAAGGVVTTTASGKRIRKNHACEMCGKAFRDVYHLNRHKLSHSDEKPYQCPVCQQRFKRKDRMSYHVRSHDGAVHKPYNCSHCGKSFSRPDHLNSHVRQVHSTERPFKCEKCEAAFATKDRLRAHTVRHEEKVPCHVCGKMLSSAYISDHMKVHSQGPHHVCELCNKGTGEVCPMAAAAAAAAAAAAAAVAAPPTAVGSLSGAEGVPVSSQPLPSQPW
# [3] = target: hnRNP A1 (Panc-1 nuclear extract) (UniProt P09651); test: pull-down; conditions: pull-down: 20 mM Tris-HCl pH 7.4, 150 mM KCl, 8% glycerol, 1 mM DTT, 0.1 mM ZnAc, 2.5 ng/uL poly[dI-dC], RT, 80 nM DNA, protein in an extract
# [4] = system: PARP-1; test: EMSA; conditions: EMSA: 20 mM Tris-HCl pH 8, 30 mM KCl, 1.5 mM MgCl2, 1 mM DTT, 8% glycerol, 50 uM ZnAc, 2.5 ng/mL poly[dI-dC], 25 C, 50 nM DNA, commercial protein, label: 5'-Cy5.5
# [5] = system: GST-hnRNP A1; test: EMSA; conditions: EMSA: 20 mM Tris-HCl pH 8, 30 mM KCl, 1.5 mM MgCl2, 1 mM DTT, 8% glycerol, 50 uM ZnAc, 2.5 ng/mL poly[dI-dC], 25 C, 50 nM DNA; recombinant protein; protein details: GST; label: 5'-Cy5.5; folded or branched DNA
# [6] = target: GST-MAZ (UniProt P56270); test: EMSA; conditions: EMSA: 20 mM Tris-HCl pH 8, 30 mM KCl, 1.5 mM MgCl2, 1 mM DTT, 8% glycerol, 50 uM ZnAc, 2.5 ng/mL poly[dI-dC], 25 C, 50 nM DNA; recombinant protein; protein details: GST; label: 5'-Cy5.5; folded or branched DNA
# [7] = system: PARP-1; test: Trp fluorescence quenching; conditions: commercial protein, folded or branched DNA
# [8] = very weak, label: biotin 5', folded or branched DNA
# [9] = label: biotin 5', folded or branched DNA
# [10] = duplex, one 8-oxoG in a G-run (position not in text), label: biotin 5' on strand 1
# [11] = up to 34.4-fold PARP-1, single-stranded DNA
# [12] = ~30% quenching, 2 PARP-1 per G4
# [13] = duplex, label: biotin 5' on strand 1
# [14] = duplex, two 8-oxoG (positions not in text), label: biotin 5' on strand 1
# [15] = one 8-oxoG in a G-run (position not in text), label: biotin 5', folded or branched DNA
# [16] = two 8-oxoG in the 12-nt loop (positions not in text), label: biotin 5', folded or branched DNA
sequence,measurement,setting,value
TTTTCGGGGAGAAGGAGGGGGCCGGGCCGGGC [b-mid1OX G4],binding result,"[1]; one 8-oxoG (position not in text), label: biotin 5', folded or branched DNA",binds
TTTTCGGGCCGGCGGGGGAGGAGCGGGGGCCGGG [b-mid2 G4],binding result,[2]; [8],binds more weakly
same,binding result,[3]; [8],binds more weakly
same,binding result,[1]; [9],binds
TTTTAGGGCGGTGTGGGAAGAGGGAAGAGGGGGAGG / CCTCCCCCTCTTCCCTCTTCCCACACCGCCCT [b-92 duplex],binding result,[2]; [10],binds
same,binding result,[1]; [10],binds
AATAGTAATTGCTTAGCCTG [ODN2],binding result,[4]; [11],no binding
TTTTAGGGCGGTGTGGGAAGAGGGAAGAGGGGGAGG [b-32R G4],binding result,[2]; [9],binds
same,binding result,[3]; [9],binds
same,binding result,[1]; [9],binds
CGGGGAGAAGGAGGGGGCCGGGCCGGGC [Cy5.5-mid1 (G4 mid1)],binding result,[5],binds
same,binding result,[6],binds
TTTTCGGGGAGAAGGAGGGGGCCGGGCCGGGCCGGCGGGGGAGGAGCGGGGGCCGGGC [b-midOX G4],binding result,"[2]; some binding, two 8-oxoG (positions not in text), label: biotin 5', folded or branched DNA",binds more weakly
CGGGGAGAAGGAGGGGGCCGGGCCGGGC [G4 mid1 unlabelled],binding result,[7]; [12],binds
TTTTCGGGGAGAAGGAGGGGGCCGGGCCGGGCCGGCGGGGGAGGAGCGGGGGCCGGGC [b-mid G4],binding result,[2]; [9],no binding
same,binding result,[3]; [9],no binding
same,binding result,[1]; [9],no binding
CGGGGAGAAGGAGGGGGCCGGGCCGGGCCGGCGGGGGAGGAGCGGGGGCCGGGC [Cy5.5-mid (G4 mid)],binding result,[5],binds
same,binding result,"[4]; little binding, not shown, folded or branched DNA",binds more weakly
same,binding result,[6],binds
AGGGCGGTGTGGGAAGAGGGAAGAGGGGGAGG [G4 32R unlabelled],binding result,"[7]; ~50% quenching, 2 PARP-1 per G4, Na-cacodylate pH 7.4, 100 mM KCl, 50 uM ZnAc, 20 C",binds
TTTTAGGGCGGTGTGGGAAGAGGGAAGAGGGGGAGG / CCTCCCCCTCTTCCCTCTTCCCACACCGCCCT [b-32R duplex],binding result,[2]; [13],binds
same,binding result,[1]; [13],binds
TTTTCGGGGAGAAGGAGGGGGCCGGGCCGGGC [b-mid1 G4],binding result,[2]; [8],binds more weakly
same,binding result,[3]; [8],binds more weakly
same,binding result,[1]; [9],binds
TTTTCGGGGAGAAGGAGGGGGCCGGGCCGGGCCGGCGGGGGAGGAGCGGGGGCCGGGC / GCCCGGCCCCCGCTCCTCCCCCGCCGGCCCGGCCCGGCCCCCTCCTTCTCCCCG [b-mid duplex],binding result,[2]; [13],binds
same,binding result,[3]; [13],no binding
same,binding result,[1]; [13],binds
TTTTCGGGCCGGCGGGGGAGGAGCGGGGGCCGGGC [b-mid2OX G4],binding result,"[1]; two 8-oxoG (positions not in text), label: biotin 5', folded or branched DNA",binds
CATCAGAAGGCTAGCAATCA [ODN1],binding result,[4]; [11],no binding
CCTAATGCTGCTAAACTCCC [ODN3],binding result,[4]; [11],no binding
TTTTAGGGCGGTGTGGGAAGAGGGAAGAGGGGGAGG / CCTCCCCCTCTTCCCTCTTCCCACACCGCCCT [b-96 duplex],binding result,[2]; [14],binds
same,binding result,[1]; [14],binds
CGGGCCGGCGGGGGAGGAGCGGGGGCCGGGC [G4 mid2 unlabelled],binding result,[7]; [12],binds
TTTTAGGGCGGTGTGGGAAGAGGGAAGAGGGGGAGG [b-92 G4],binding result,[2]; [15],binds
same,binding result,[3]; [15],binds
same,binding result,[1]; [15],binds
TTTTAGGGCGGTGTGGGAAGAGGGAAGAGGGGGAGG [b-96 G4],binding result,[2]; [16],binds
same,binding result,[3]; [16],binds
same,binding result,[1]; [16],binds
CGGGCCGGCGGGGGAGGAGCGGGGGCCGGGC [Cy5.5-mid2 (G4 mid2)],binding result,[5],binds
same,binding result,[6],binds

# Construct, isoform or probe ends are uncertain for at least one entry. For some of these results: Negatives hold for the conditions tested. For some of these results: Weaker means in comparison with the reference protein, sequence or condition of that experiment. For some of these results: Results from cells or extracts need not show a direct contact. For some of these results: Tags and fusion partners may be left off the protein sequences shown. For some of these results: At least one verdict rests on a figure or table, not on a statement of the authors.
